The record followed here is US20050222029A1.

Protein sequences, listed by entry. Tags and fused reporters are not part of them. Lines headed by an entry give the natural chain unless they say otherwise; changes in a name come on top. Residues count along the entry.
E6-AP ubiquitin-protein ligase (UBE3A) 636-861 (Q05086, residues 636-861): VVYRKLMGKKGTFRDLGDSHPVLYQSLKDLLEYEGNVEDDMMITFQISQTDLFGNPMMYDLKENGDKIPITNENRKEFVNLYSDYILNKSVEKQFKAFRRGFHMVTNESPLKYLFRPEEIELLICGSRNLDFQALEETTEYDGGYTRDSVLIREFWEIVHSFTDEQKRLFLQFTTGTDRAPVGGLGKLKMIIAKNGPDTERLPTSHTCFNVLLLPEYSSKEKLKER
E6-AP ubiquitin-protein ligase (UBE3A) 705-861 (Q05086, residues 705-861): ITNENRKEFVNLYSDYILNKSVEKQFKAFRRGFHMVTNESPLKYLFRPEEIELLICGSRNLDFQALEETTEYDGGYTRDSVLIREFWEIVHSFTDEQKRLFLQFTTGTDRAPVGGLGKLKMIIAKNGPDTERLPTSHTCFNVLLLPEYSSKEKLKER
E6-AP ubiquitin-protein ligase (UBE3A) 720-861 (Q05086, residues 720-861): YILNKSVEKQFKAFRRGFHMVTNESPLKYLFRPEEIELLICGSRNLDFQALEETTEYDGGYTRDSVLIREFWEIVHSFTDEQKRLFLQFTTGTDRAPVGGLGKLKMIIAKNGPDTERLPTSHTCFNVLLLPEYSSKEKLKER
UniProt Q15075, residues 872-1039: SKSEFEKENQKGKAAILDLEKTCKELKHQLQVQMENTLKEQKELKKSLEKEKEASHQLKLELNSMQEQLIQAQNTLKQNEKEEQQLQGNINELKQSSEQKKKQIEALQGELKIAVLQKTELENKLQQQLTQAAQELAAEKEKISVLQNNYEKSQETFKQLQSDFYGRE
UniProt P48668, residues 373-444: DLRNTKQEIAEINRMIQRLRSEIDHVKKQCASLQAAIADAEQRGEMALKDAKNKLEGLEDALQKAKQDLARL
UniProt Q99816: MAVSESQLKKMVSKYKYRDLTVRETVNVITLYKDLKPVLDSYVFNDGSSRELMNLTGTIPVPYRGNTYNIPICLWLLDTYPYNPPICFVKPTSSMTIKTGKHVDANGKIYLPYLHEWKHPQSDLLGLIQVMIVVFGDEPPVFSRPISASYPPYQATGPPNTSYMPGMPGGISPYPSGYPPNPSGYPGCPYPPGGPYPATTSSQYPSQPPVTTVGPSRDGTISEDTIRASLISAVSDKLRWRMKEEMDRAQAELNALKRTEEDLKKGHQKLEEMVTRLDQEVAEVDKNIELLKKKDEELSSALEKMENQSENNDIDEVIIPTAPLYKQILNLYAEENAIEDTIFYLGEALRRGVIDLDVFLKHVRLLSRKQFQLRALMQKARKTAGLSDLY
UniProt P35916, residues 791-1177: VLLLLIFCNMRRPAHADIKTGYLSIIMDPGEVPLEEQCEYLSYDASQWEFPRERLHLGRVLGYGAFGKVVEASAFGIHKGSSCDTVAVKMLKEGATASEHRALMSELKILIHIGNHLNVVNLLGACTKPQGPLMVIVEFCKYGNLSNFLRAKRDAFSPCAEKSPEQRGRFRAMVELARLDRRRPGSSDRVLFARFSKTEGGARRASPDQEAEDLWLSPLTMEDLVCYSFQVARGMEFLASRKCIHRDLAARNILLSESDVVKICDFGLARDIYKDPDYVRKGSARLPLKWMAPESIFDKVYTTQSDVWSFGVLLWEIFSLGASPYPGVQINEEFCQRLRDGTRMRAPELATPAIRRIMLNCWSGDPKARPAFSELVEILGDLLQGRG
UniProt O15392, residues 47-142: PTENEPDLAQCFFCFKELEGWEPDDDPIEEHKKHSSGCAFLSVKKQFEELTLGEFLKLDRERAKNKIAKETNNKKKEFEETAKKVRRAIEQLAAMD

In assay [1] the target is T1, Golgin-67 68-228 (human) (UniProt A8MQT2).
T1 sequence (looked up): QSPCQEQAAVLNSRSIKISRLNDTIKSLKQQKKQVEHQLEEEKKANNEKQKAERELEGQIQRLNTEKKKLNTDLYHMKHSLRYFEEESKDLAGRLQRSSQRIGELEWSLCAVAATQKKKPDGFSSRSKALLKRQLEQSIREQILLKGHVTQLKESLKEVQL
The experiment in a line: yeast two-hybrid.

Assay [2] addresses T2, GrpE-Like protein cochaperone (PN19062) 55-79 (human).
T2 sequence: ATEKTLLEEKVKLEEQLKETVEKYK
In words: yeast two-hybrid.

For assay [3], the target named is T3, Kinectin 851-1110 (human) (UniProt Q86UP2).
T3 sequence (looked up): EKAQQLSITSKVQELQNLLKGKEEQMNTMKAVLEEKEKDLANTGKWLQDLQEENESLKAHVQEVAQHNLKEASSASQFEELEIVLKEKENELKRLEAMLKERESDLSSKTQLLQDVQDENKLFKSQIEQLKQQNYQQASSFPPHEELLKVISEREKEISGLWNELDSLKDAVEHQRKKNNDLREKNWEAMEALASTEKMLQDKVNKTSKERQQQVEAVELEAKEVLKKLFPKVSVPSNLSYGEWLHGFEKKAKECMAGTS
The experiment in a line: yeast two-hybrid.

Assay [4] addresses T4, Kinectin 851-1113 (human) (UniProt Q86UP2).
T4 sequence (looked up): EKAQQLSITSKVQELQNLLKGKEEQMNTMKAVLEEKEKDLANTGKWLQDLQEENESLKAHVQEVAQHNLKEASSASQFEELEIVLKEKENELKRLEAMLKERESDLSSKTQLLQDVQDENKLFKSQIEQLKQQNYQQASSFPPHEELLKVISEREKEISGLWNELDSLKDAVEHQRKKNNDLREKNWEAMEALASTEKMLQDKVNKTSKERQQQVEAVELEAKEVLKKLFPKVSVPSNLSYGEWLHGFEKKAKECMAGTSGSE
In words: yeast two-hybrid.

The target of assay [5] is T5, Kinectin 854-1110 (human) (UniProt Q86UP2).
T5 sequence (looked up): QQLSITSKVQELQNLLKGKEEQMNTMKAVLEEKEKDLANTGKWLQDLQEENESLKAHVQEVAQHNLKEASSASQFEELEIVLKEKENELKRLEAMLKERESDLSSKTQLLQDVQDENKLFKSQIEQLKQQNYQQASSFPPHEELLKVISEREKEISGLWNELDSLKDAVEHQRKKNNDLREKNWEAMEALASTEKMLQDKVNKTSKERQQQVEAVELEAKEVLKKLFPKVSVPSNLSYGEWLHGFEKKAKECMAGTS
The experiment in a line: yeast two-hybrid.

Assay [6] concerns the target T3, Kinectin 851-1110 (human). The experiment in a line: yeast two-hybrid, brain library.
In assay [7] the target is T1, Golgin-67 68-228 (human). The experiment in a line: yeast two-hybrid, spleen library.
In assay [8] the target is T2, GrpE-Like protein cochaperone (PN19062) 55-79 (human). In words: yeast two-hybrid, macrophage library.
Assay [9] addresses T6, p53-induced protein 7 (PIG7) 1-106 (human) (UniProt Q99732).
T6 sequence (looked up): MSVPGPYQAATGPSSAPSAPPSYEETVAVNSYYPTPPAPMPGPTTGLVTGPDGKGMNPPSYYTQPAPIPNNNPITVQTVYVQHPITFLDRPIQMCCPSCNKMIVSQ
In words: yeast two-hybrid.

The target of the next assay is T7, Keratin 5 9-171 (human) (UniProt P13647).
T7 sequence (looked up): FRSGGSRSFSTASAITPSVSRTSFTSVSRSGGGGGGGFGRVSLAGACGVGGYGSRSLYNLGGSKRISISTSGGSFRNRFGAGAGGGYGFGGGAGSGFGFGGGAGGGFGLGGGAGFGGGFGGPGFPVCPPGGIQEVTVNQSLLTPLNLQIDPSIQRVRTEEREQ
The experiment in a line: yeast two-hybrid.

Assay [10] has as its target T8, Synaptic nuclei expressed gene 1, alt. Transcript beta (3321) (SYNE-1) 1093-1249 (human).
T8 sequence: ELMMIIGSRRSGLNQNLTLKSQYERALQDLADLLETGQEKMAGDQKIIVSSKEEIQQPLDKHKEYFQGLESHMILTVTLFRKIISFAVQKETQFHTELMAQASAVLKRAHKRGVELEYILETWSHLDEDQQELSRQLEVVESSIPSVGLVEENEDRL
The experiment in a line: yeast two-hybrid.

Assay [11] deals with E6-AP ubiquitin-protein ligase (UBE3A) 636-861 (human) (UniProt Q05086). In words: yeast two-hybrid.
The target in assay [12] is E6-AP ubiquitin-protein ligase (UBE3A) 705-861 (human) (UniProt Q05086). In words: yeast two-hybrid.
For assay [13], the target named is E6-AP ubiquitin-protein ligase (UBE3A) 720-861 (human) (UniProt Q05086). In words: yeast two-hybrid.
The target in assay [14] is T9, phospholipase C gamma 1 (PLCG1) 445-757 (human) (UniProt P19174).
T9 sequence (looked up): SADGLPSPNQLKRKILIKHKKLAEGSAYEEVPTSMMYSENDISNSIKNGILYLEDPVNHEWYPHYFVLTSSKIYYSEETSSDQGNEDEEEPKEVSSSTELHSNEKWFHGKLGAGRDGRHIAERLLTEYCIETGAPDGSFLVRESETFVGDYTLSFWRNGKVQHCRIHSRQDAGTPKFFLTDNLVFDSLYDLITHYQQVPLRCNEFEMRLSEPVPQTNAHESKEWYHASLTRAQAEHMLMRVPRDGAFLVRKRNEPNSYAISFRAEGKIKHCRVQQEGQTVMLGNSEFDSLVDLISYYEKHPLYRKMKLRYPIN
The experiment in a line: yeast two-hybrid.

In assay [15] the target is T10, phospholipase C gamma 1 (PLCG1) 505-772 (human) (UniProt P19174).
T10 sequence (looked up): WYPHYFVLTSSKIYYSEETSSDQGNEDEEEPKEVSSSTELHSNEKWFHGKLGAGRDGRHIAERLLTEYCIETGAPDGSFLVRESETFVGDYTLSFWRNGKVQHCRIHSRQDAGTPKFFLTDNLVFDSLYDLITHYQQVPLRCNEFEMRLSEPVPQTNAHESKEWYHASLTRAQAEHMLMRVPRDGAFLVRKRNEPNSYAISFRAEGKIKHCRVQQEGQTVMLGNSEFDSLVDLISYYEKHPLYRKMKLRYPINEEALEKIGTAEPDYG
In words: yeast two-hybrid.

In assay [16] the target is T11, Beta-prime subunit of coatomer complex (COPP) 7796-906 (so in the source) (human) (UniProt P35606).
T11 sequence (looked up): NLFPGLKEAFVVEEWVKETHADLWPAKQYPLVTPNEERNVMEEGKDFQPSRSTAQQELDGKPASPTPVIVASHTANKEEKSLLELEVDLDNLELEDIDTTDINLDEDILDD
In words: yeast two-hybrid.

Assay [17] has as its target T12, Catenin (GenBank U96136) 684-1148 (human) (UniProt Q9UQB3).
T12 sequence (looked up): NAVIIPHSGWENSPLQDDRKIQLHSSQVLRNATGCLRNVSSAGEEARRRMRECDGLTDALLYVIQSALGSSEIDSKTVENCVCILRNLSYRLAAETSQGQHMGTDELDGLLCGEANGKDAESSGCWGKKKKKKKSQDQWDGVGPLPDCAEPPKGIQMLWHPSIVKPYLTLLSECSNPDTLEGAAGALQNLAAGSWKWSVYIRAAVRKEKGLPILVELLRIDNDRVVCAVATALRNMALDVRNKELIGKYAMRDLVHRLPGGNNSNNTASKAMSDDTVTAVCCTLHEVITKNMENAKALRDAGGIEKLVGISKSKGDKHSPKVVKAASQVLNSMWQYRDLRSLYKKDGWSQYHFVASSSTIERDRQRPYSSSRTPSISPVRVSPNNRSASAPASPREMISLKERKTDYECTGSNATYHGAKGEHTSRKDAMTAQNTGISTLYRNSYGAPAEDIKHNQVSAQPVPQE
In words: yeast two-hybrid.

Assay [18] concerns the target Endosome-associated protein 1 872-1039 (human) (UniProt Q15075). In words: yeast two-hybrid.
In assay [19] the target is Keratin 6C 373-444 (human) (UniProt P48668). In words: yeast two-hybrid.
In a further assay the target is T13, Hook2 132-428 (human) (UniProt Q96ED9).
T13 sequence (looked up): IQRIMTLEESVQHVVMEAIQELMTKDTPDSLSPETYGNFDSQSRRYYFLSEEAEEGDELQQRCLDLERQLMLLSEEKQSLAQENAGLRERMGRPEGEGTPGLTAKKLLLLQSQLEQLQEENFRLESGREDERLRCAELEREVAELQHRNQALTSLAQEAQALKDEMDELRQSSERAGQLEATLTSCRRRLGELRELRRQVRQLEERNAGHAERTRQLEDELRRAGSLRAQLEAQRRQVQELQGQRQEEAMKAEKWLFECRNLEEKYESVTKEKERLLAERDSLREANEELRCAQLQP
The experiment in a line: yeast two-hybrid, breast and prostate cancer library.

Assay [20] addresses T14, Death associated protein 5 (DAP5) 16-157 (human) (UniProt P78344).
T14 sequence (looked up): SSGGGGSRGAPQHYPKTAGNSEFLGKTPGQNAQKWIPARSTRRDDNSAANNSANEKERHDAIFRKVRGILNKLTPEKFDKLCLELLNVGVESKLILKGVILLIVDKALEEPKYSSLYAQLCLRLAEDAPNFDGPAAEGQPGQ
In words: yeast two-hybrid.

The target of assay [21] is T14, Death associated protein 5 (DAP5) 16-157 (human). In words: yeast two-hybrid, macrophage library.

These are yes or no findings as the source states them, for the method shown. Some results given as binding are weak or reduced against the parent protein; the word gives no strength.

Take “Tumor Suppressor (TSG101) 231-391 (from UniProt Q99816 231-390)”: the binding result (in the assay with Golgin-67 68-228 (human) [1]; in [2]; in assay [3]; in assay [4]; in assay [5]; in assay [6]) was “binds” each time. Also, the binding result (in the assay with Golgin-67 68-228 (human) [7]; in assay [8]) was “binds” throughout.

For “Tumor Suppressor (TSG101) 1-274 (from UniProt Q99816 1-274)”, the binding entry in [9] is listed as “binds”.

As to “Tumor Suppressor (TSG101) 1-157 (from UniProt Q99816 1-157)”, the binding result in the assay with Keratin 5 9-171 (human) is “binds”.

In the case of “Tumor Suppressor (TSG101) 12-326 (from UniProt Q99816 12-326)”, in assay [10], the binding result is listed as “binds”.

For “FMS-Related Tyrosine Kinase 4 (FLT4) 791-177 (as printed) (from UniProt P35916 791-1177) (receptor)”, the binding entry in assay [11], in assay [12], in assay [13], in [14] and in [15] was “binds” throughout.

As to “Survivin (BIRC5) 47-143 (from UniProt O15392 47-142)”, the binding entry in [16] is listed as “binds”.

Take “Tumor Suppressor (TSG101) 240-391 (from UniProt Q99816 240-390)”: the binding result (in assay [17]; in [18]; in [19]; with Hook2 132-428 (human)) was “binds” each time.

On to “Tumor Suppressor (TSG101) 265-391 (from UniProt Q99816 265-390)”, for which the binding entry in assay [20] and in assay [21] was “binds” in each case.
